These results are taken from US20240239799A1, “(S)-1-(5-((PYRIDIN-3-YL)THIO)PYRAZIN-2-YL)-4'H,6'H-SPIRO[PIPERIDINE-4,5'-PYRROLO [1,2-B]PYRAZOL]-4'-AMINE DERIVATIVES AND SIMILAR COMPOUNDS AS SHP2 INHIBITORS FOR THE TREATMENT OF E.G. CANCER” (C.N.C.C.S. S.C.A.R.L. COLLEZIONE NAZIONALE DEI COMPOSTI …, priority 2021, published 2024).

Amino acid sequences for entries named in this document (tags omitted). Residues count along the entry.
UniProt Q06124, 1-525 limits assumed: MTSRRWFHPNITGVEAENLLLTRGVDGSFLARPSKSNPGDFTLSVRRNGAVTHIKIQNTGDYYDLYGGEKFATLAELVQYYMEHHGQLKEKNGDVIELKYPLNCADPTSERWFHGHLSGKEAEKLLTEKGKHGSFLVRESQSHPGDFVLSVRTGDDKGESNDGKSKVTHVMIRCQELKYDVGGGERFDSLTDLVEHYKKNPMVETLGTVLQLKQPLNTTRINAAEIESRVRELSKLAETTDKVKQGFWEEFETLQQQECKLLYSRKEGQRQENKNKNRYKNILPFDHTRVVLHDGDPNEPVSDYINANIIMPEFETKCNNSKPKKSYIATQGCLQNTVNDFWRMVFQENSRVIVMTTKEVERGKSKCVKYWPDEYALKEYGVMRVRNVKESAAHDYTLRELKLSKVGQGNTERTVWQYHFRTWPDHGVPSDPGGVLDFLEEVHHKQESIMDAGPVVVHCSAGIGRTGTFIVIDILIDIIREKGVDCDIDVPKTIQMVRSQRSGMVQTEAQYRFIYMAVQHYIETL

Molecules are shown by their SMILES. Read-outs that look alike come from different tables or passages of the source. Structures were worked out from names or drawings and are uncertain.

A word on the IC50: it is the concentration needed to halve the response being measured.

For assay [1], the target named is SHP-2 enzyme (Met1-Leu525) (Homo sapiens, UniProt Q06124). Put plainly: SHP2 inhibition enzymatic assay (DiFMUP substrate, IRS1 peptide activation). The conditions noted are these: read-out: SHP2wt - IC50, 0.5 nM SHP-2, 500 nM IRS1 peptide, 75 μM DiFMUP. The procedure: The assay was performed as described in YP Chen et al, Nature (535)2016. Assay volume of 20 μL/well was assembled in 384 well black polystyrene low-binding microplates (Greiner), using the following buffer: 60 mM HEPES pH 7.2, 75 mM NaCl, 75 mM KCl, 1 mM EDTA pH 8, 0.05% tween-20, 5 mM DTT. The SHP-2 enzyme (synthetized by Origene, Met1-Leu525, cat #TP750155) was used at a final concentration of 0.5 nM. The enzyme was activated by 500 nM IRS1 peptide (sequence: H2N-LN(pY)IDLDLV(dPEG8)LST(pY)ASINFQK-amide SEQ ID No. 1) and incubated with 75 μM DiFMUP (Sigma) as substrate.
Briefly, DMSO serially diluted testing compounds were transferred to the bottom of the assay plate. SHP2 was then added together with the IRS1 peptide 30 min post incubation, the DiFMUP substrate was added to the reaction and incubated 30 min at rt. Finally 5 μL of 160 μM bpV (Potassium bisperoxo[1,10-phenanthroline]oxovanadate[V], Sigma) were added to stop and quench the reaction. The fluorescence was detected by a microplate reader (Envision, PerkinElmer) according to the DiFMUP excitation and emission wavelength. The lower the fluorescence the higher the SHP2 inhibition.
The activity of each compound dilution was calculated as percentage of inhibition between vehicle (DMSO, 0% inhibition) and no enzyme (100% inhibition). The percentage inhibition is fitted against the compound dilutions with a four-parameter logistic regression. The inflection point (i.e. the concentration at which half-maximal inhibition is achieved) is the IC50.
Legend: A indicates IC50 less or equal to 0.05 μM; B indicates IC50 greater than 0.05 μM and lower or equal to 0.3 μM; C indicates IC50 higher than 0.3 μM.

Assay [2] deals with phospho-ERK1/2 (Thr202/Tyr204) in KYSE-520 cells. The experiment in a line: Phospho-ERK cellular assay (TR-FRET). The procedure: ERK phosphorylation was detected using the “Advanced phospho-ERK1/2 (Thr202/Tyr204)” TR-FRET kit (Cisbio, Cat #64AERPEG/H), following the manufacturer reagents and instructions.
Briefly, 20.000/well KYSE-520 cells (DSMZ ACC 371) were plated in 6 μL RPMI-1640 (Invitrogen) growth medium, into 384 white low-volume high base TC microplates (Greiner). After an overnight incubation, cells were treated with DMSO serial diluted compounds and incubated for 2 h at 37° C. After incubation, 2 μL/well of 4X Lysis Buffer (Cisbio 64KL1FDF), were added and incubated with cells for 30 min on gentle shaking. Finally, lysates were added with 2 μL/well of Eu cryptate (donor) and D2 (acceptor) conjugated antibodies (as provided by the Cisbio kit #64AERPEG/H) diluted 1:100 in Detection Buffer (as provided by the Cisbio kit #64AERPEG/H). Plates were then sealed and incubated at rt in the dark. After an overnight incubation, the TR-FRET signal was detected on a suitable reader (Envision, PerkinElmer). The lower the TR-FRET signal the higher the higher the SHP2 inhibition in cells.
The activity of each compound dilution was calculated as percentage between vehicle DMSO treated cells and no cells, 0% inhibition and 100% inhibition respectively. The percentage activity is fitted against the compound dilutions with a four-parameter logistic regression. The inflection point (i.e. the concentration at which half-maximal inhibition is achieved) is the IC50.
Legend: “+” indicates IC50 equal or higher than 0.5 μM; “++” indicates IC50 less than 0.5 μM and higher or equal to 0.1p M; “+++” indicates IC50 less than 0.1p M.
(In general: TR-FRET usually uses a lanthanide donor and a delayed reading to cut background.)

The target of assay [3] is SHP2 (Avi-G4SG4S-PTPN11(1-525)) (Homo sapiens, UniProt Q06124). Put plainly: Binding kinetic assay by surface plasmon resonance (SPR). The conditions noted are these: Biacore T200, single cycle kinetic, 1:1 Langmuir binding model, tested form: TFA.
Where [4] appears, read: read-out: pERK IC50, 2 h at 37° C., tested form: TFA.

For `Nc1nccc(Sc2cnc(N3CCC4(CC3)Cn3nccc3[C@H]4N)n3ccnc23)c1Cl`, the IC50 was under 50 nM in assay [1] (tested form: TFA) and under 100 nM in assay [2] (setting [4]). Further, the “k off SPR” value in assay [3] (triplicate) amounted to 0.000554 s⁻¹. The “Residence time 1/koff SPR” value in assay [3] is 1805 s.
For the compound `N[C@@H]1c2ccnn2CC12CCN(c1cnc(Sc3ccn4cc(NC(=O)C(F)(F)F)nc4c3Cl)cn1)CC2`, the IC50 in assay [1] (tested form: TFA) is under 50 nM; in assay [2] (setting [4]), under 100 nM.
For the compound `NC(=O)c1cn2ccc(Sc3cnc(N4CCC5(CC4)Cn4nccc4[C@H]5N)cn3)c(Cl)c2n1`, the IC50 in assay [1] (tested form: TFA) was under 50 nM; in assay [2] (setting [4]), under 100 nM.
As for `CC(=O)N1CC(F)(F)c2c(Sc3ncc(N4CCC5(CC4)Cn4nccc4[C@H]5N)nc3N)cccc21`, the IC50 in assay [1] (tested form: trifluoroacetate) was under 50 nM; in assay [2] (read-out: pERK IC50, 2 h at 37° C., tested form: trifluoroacetate) it was under 100 nM.
